From patent publication US20230074657A1
These are yes or no findings as the source states them, for the method shown. Some binding calls cover weakened binding; strength is not graded here.

Sequences of proteins named here, by UniProt entry; tags and fusion partners are left off. Residues count along the entry.
UniProt P18627, residues 23-450: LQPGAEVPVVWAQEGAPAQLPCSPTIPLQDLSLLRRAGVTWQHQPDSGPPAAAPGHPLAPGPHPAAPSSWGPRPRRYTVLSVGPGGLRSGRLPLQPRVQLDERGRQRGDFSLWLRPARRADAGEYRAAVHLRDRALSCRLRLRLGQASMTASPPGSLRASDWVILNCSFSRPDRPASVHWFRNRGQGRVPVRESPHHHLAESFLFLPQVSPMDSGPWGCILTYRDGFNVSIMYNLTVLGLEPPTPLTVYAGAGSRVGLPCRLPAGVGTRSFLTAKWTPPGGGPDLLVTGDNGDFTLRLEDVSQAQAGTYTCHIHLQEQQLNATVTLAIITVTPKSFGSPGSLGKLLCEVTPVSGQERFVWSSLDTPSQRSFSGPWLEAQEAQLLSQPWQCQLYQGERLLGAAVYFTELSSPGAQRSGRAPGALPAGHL

Tests used:
[1] = molecular target: LAG3-Fc recombinant protein (UniProt P18627); assay: ELISA, plate coated with LAG3-Fc
[2] = molecular target: LAG3-Fc recombinant protein (UniProt P18627); assay: ELISA on coated LAG3-Fc, anti-human kappa-HRP

B1: anti-LAG3 chimeric antibody c6H11B10 (antibody, human IgG4 S228P, V domains shown)
VH: EVQVVESGGGLVKPGGSLKLSCAASGFTFSDYYMFWVRQTPEERLEWVATINDGGDYTNYPDSVKGRFTISRDNDKNKLYLQMNSLKSEDTAMYYCARESGIYYDYASFGYWGQGTLVTVSS
VL: DIVMTQAAFSNPVTLGTSASISCRSSKSLLYSNGITYLYWYLQKPGQSPQLLIYQMSNLASGVPDRFSSSGSGTDFTLRISRVEAEDVGVYYCAQNLELPWTFGGGTKLEIKR
**Q.** For B1, which binding [1] is on record?
**A.** The binding was “binds”.

**Q.** And the binding [2]?
**A.** The binding was “binds”.
